Results taken from the supplement of paper PMC5949888.
Most values lie at the floor of the assay. Slopes are relative: functional sequences can read slightly below zero.

The substances below were run on Saccharomyces cerevisiae PS128 hsf1 delta, HSF1(1-493) fusion (assay: growth estimate (transactivation domain function in HSF1 fusion, heat-shock survival) (a.u. (slope of normalised read count over time)); higher = stronger growth at 37°C, i.e. more transactivation activity). Conditions: library: random library.
Description: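 Random 60-nt DNA library encoding peptides of up to 20 aa, fused to the C-terminus of yeast HSF1 residues 1-493 (C-terminal TAD deleted) and expressed from the native HSF1 promoter on a CEN plasmid in hsf1-deleted S. cerevisiae PS128. Cells were selected at 37°C on -trp 5-FOA plates for 0, 2, 4, 6 and 8 days and amplicons were sequenced. Growth estimate is the slope of a robust linear fit of total-sum-normalised read counts (normalised to the first time point) over time, using at least 2 replicates. Sequences are classed functional (TAD activity) above a threshold of -0.13, set from stop-codon control sequences.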

| Substance | growth estimate |
| --- | --- |
| FVESREH | < -0.25 |
| FVGRNRSLVDGLPTAATRQI | < -0.25 |
| FVH | < -0.25 |
| FVHCYLRWESEPLEFYLNGV | < -0.25 |
| FVKDARVNCVNPRF | < -0.25 |
| FVLATWSLGGPLQVTRLTHK | < -0.25 |
| FVLGATVTIRGRFWACVTL | < -0.25 |
| FVMFRTDSASRT | < -0.25 |
| FVMGLVAPTDGGCVGFATCR | < -0.25 |
| FVNGAVDCDIAQVYIGGVKV | < -0.25 |
| FVNKHNYQGPRSLILIA | -0.241 |
| FVNKYIRHNRLN | < -0.25 |
| FVRHPPSRGASLSTQ | < -0.25 |
| FVRLLKRIYEAGGRRGKRGS | < -0.25 |
| FVSGKNRSFNLHVANLKARQ | < -0.25 |
| FVYPFGWHRPTRSL | < -0.25 |
| FVYRLEMCL | < -0.25 |
| FWEALGKGRRLTYCTSGPRQ | < -0.25 |
| FWGCDQGVYELYRHVR | -0.234 |
| FWKEVV | -0.246 |
| FWSPLLDLDPYSK | -0.169 |
| FWWHQYRVLIMAWEYKI | < -0.25 |
| FYCVQGGCGAEPLIARVLKG | < -0.25 |
| FYLCRLCPCECTLTLVILTW | -0.25 |
| FYSGNFATILLGSCCGRRAC | < -0.25 |

| Substance | growth estimate |
| --- | --- |
| FYSWAGKVFPSTRPNSIVGP | -0.246 |
| FYVQDLNYHVENVGTTSRLR | < -0.25 |
| FYVSLFRRFIRALSLLGNMS | < -0.25 |
| GAALGGMRCGRKGFALLSLS | < -0.25 |
| GAASTSKRR | < -0.25 |
| GACNAGPPTEFICPE | < -0.25 |
| GACTRDEYHRG | < -0.25 |
| GADGCADRHQGHALQQS | -0.243 |
| GADQNRGSLLKSGLQFSRIE | < -0.25 |
| GAFECLRNTVVLFVFFGPFR | < -0.25 |
| GAFLPSEPGWWPLSFPNSWL | < -0.25 |
| GAFRISSPVRLKHIRSFSDV | < -0.25 |
| GAFTSA | < -0.25 |
| GAGANHRRLREPGGVRNGVY | < -0.25 |
| GAGLLRLLQLISRQGKVHAI | < -0.25 |
| GAGNWPPLCSGARAWRCSRQ | < -0.25 |
| GAGTMRLQRCLGTFVKGLSR | < -0.25 |
| GAILQNIKPCTANES | < -0.25 |
| GAIVHIGG | < -0.25 |
| GAIWGFNL | < -0.25 |
| GALHWLNGRPWRR | < -0.25 |
| GALK | < -0.25 |
| GALMSRC | < -0.25 |
| GALNVRLVGVSGSGKLNENG | < -0.25 |
| GALPCVPTLKPGRLYWAP | < -0.25 |

| Substance | growth estimate |
| --- | --- |
| GAMVPRSIEFLMNFGG | 0.0084 |
| GANPVGRF | < -0.25 |
| GANTEGCFPEPSRGLVLSDG | < -0.25 |
| GANVSGDTFRLVYPRKC | -0.246 |
| GAPLGSIQKSAYCNVWKKSG | < -0.25 |
| GAPLL | < -0.25 |
| GAPNLLTVKEDWNGIRIAFF | < -0.25 |
| GAQSDLVYSFVQTVFGLSLW | < -0.25 |
| GARLKEGPTLAQEDRLHVPG | < -0.25 |
| GARVIVAERSGRVSL | < -0.25 |
| GASRDLSFDLHGMTSPRAPS | < -0.25 |
| GATLSTLFIQVYVMTQA | < -0.25 |
| GATNP | < -0.25 |
| GATRIGLALYSFNFMRFLRK | < -0.25 |
| GATVVS | < -0.25 |
| GAVIDLLQPGGNATVALEIF | < -0.25 |
| GAVMLILNLC | < -0.25 |
| GAVRTADSVITDRLLHS | < -0.25 |
| GCEYYYRSGSVPTRS | < -0.25 |
| GCGANVGNDGNRLRRRQCFS | < -0.25 |
| GCGLFAAS | < -0.25 |
| GCGNGR | < -0.25 |
| GCGRCWFGRTN | < -0.25 |

Part of the list above, bar-delimited:
Substance | growth estimate
GAVRTADSVITDRLLHS | < -0.25
GCEYYYRSGSVPTRS | < -0.25
GCGANVGNDGNRLRRRQCFS | < -0.25
